Experimental data reported in publication PMC12242654, “Design, Synthesis, and In Vitro Evaluation of the Leishmanicidal Activity of New Aromatic Symmetrical 1,4-Disubstituted 1,2,3-Bistriazoles” (ACS Omega, 2025).

Test system: promastigote forms of L. amazonensis
Assay: Leishmanicidal activity against promastigote forms of L. amazonensis (resazurin)
Format: cell-based, Leishmania amazonensis
Conditions: CC50 murine macrophage / IC50 promastigote
Protocol: Promastigotes of L. amazonensis (MHOM/BR/71973/M2269) were grown on 24-well plates in Schneider’s Drosophila medium (Sigma, USA) supplemented with 10.0% (v/v) heat-inactivated fetal bovine serum and 1.0% penicillin (10000 UI mL^–1)/streptomycin (10.0 mg mL^–1) (Sigma, USA). Cells were harvested in the log phase, suspended in a fresh medium, counted in Neubauer’s chamber, and adjusted to a concentration of 1 × 10^6 cells mL^–1 using 24-well plates. The compounds were added to promastigote cultures (1 × 10^6 cells mL^–1) in the range of 0.10–40.00 μg mL^–1, solubilized in dimethyl sulfoxide (DMSO) (0.6%, v/v in all wells), and incubated at 25 °C. After 72 h of incubation, resazurin was used to detect cellular metabolic activity for the determination of 50.0% inhibitory growth concentration (IC50-promastigote). All tests were performed in triplicate at three different times, and amphotericin B (Sigma) was used as the reference drug.

O=[N+]([O-])c1ccc(-c2cn(CC(O)Cn3cc(-c4ccc([N+](=O)[O-])cc4)nn3)nn2)cc1 [8b, 1,3-Bis(4-(4-nitrophenyl)-1H-1,2,3-triazol-1-yl)propan-2-ol]
SI (murine) proma: 6.29
